Results as given in the supplement of paper PMC10849652.
This is one part of the list. Residues, ends and D or L forms follow the SMILES beside them. *: point of attachment. Cbz = O=C(OCc1ccccc1)*

The chains behind the UniProt entries cited, without tags or fusion partners. Where a name states a change or a piece, a line headed by the entry shows the natural chain unless it says otherwise.
UniProt Q96AB3: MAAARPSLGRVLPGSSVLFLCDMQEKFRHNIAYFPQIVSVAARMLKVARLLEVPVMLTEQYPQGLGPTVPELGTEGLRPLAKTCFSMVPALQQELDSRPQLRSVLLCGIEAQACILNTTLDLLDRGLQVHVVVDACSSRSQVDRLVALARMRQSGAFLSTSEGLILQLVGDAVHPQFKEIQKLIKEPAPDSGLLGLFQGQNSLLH
UniProt Q8IWB1: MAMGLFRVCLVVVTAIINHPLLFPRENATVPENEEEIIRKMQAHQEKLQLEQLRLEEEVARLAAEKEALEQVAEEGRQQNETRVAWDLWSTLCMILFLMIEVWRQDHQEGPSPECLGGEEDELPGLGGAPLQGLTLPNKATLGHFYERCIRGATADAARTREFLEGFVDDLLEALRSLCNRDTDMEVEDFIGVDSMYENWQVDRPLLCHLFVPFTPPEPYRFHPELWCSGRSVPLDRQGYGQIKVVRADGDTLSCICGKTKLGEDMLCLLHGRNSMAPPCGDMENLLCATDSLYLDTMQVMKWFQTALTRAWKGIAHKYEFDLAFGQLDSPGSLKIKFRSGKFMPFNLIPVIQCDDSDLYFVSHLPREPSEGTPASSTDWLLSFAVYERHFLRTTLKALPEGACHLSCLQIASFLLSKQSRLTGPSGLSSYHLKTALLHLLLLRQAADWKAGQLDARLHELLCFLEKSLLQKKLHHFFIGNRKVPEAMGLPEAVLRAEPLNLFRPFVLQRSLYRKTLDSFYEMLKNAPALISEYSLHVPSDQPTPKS
UniProt Q12906, whole entry, looked up: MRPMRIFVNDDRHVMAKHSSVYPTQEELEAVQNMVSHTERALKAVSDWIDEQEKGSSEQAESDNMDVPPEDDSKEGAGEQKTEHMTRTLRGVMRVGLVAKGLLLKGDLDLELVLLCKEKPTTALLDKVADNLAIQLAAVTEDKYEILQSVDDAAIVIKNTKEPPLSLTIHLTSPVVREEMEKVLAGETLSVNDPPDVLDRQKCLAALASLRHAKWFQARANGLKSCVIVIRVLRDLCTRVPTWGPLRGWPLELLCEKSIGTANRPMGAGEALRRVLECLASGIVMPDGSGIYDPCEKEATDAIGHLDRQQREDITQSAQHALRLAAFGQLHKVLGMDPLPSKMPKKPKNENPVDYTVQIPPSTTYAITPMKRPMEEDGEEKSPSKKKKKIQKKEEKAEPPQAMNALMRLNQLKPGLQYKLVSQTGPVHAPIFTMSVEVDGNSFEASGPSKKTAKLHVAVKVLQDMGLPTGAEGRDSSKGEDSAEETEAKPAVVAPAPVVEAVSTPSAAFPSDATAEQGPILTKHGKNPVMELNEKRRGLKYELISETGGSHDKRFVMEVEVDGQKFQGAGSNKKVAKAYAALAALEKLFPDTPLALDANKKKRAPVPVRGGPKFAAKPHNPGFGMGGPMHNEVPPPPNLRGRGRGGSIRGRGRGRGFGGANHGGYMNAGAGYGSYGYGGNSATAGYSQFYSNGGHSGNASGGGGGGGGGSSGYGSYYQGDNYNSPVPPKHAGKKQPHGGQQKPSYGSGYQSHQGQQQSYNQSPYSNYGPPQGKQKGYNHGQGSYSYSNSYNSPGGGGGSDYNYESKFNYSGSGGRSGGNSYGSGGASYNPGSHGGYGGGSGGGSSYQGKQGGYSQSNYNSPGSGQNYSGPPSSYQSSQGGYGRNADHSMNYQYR
UniProt Q9H0C8: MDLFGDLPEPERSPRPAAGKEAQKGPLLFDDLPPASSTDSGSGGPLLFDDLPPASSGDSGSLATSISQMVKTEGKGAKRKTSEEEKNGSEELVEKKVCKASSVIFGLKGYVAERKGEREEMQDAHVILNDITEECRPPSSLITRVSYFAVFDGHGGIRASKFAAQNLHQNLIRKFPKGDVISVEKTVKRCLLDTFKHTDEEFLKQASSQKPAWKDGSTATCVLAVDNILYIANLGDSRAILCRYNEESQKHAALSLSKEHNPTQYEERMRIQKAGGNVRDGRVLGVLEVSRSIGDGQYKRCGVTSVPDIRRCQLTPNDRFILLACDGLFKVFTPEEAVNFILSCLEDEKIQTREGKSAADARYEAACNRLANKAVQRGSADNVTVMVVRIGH
UniProt Q9Y287, whole entry, looked up: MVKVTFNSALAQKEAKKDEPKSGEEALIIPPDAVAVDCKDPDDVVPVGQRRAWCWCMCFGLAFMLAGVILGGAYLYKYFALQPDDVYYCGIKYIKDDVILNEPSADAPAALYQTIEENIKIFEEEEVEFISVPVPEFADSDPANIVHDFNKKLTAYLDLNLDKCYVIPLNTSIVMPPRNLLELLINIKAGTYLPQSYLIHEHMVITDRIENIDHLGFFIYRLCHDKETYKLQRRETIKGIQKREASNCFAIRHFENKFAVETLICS
UniProt P18065: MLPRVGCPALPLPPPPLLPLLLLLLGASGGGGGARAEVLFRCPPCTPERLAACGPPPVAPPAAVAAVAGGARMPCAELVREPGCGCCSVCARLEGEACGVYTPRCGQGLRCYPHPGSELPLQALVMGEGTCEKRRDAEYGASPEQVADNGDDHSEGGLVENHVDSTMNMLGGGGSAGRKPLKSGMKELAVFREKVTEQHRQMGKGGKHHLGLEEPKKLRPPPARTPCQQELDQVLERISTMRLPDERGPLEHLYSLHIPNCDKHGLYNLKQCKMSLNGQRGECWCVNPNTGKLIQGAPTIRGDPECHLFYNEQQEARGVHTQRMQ
UniProt O94829: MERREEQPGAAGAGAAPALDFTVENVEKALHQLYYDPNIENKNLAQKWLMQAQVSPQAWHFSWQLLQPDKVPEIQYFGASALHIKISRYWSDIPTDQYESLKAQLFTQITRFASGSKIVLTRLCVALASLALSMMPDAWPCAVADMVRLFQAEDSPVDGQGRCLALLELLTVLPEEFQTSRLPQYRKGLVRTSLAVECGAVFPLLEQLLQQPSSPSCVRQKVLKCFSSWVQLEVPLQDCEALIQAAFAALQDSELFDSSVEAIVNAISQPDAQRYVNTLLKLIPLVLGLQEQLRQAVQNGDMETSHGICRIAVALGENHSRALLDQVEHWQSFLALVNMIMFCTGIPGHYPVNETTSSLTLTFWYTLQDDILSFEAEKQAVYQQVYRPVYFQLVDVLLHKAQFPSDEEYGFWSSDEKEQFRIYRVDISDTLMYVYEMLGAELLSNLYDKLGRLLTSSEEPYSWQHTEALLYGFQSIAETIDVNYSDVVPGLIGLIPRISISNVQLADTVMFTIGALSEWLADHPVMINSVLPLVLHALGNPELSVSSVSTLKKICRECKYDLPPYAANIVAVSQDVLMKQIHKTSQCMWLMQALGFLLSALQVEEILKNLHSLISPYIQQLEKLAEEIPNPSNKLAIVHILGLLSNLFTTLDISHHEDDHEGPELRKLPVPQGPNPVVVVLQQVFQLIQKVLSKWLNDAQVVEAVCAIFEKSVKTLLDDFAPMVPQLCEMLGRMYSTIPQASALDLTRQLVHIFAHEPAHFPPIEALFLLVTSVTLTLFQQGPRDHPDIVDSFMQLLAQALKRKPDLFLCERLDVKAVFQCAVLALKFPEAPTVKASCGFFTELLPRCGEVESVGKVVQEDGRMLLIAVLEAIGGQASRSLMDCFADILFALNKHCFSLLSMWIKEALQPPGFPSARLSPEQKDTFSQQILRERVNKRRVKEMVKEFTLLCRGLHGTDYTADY
UniProt Q9H6K1: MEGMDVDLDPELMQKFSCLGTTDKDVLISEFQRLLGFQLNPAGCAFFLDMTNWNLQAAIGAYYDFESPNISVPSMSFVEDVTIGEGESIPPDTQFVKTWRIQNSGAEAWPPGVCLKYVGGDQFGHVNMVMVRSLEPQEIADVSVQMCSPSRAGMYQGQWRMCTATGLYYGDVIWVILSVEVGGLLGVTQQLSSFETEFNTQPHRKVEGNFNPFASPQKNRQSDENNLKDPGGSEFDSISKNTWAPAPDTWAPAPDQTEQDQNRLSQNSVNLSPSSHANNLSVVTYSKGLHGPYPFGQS

Assays:
Experiment in all cases: log2 fold change, soluble protein after heating vs DMSO (PISA); higher = thermal stabilisation; K562 cells, 10 uM, 30 min; active = over 0.2 and 3.5 SD of the protein, either way, in both replicates (recomputed)
[1] = compound: C#Cc1cccc(Nc2ncnc3cc(OCCOC)c(OCCOC)cc23)c1 [erlotinib]
In short: (§1)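 For each measurement, 10 μM compound was applied for 30 min to K562 cells at 2×10^6 cells/mL. Aliquots were heated for 3 min across 48°C-58°C, pooled, and extracted in PBS with 0.5% NP-40 at 4°C; the supernatant after 21,000xg for 90 min was soluble protein. This was quantified by TMTpro 16plex LC-MS/MS with channel sums equalised, and thermal stability was reported relative to control samples from duplicates, on a log2 fold-change scale.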

[2] = compound: C/C(=N\NC(=O)C1=CC(=CC=C1)S(=O)(=O)N2CCOCC2)/C3=C(C=CC(=C3)Cl)O
In short: as §1

[3] = compound: C1=CC(=C(C=C1Cl)C2=NC3=NC=CN=C3C(=N2)NC4=CC=NC=C4)F
In short: as §1

[4] = compound: C1=CC(=CC=C1C2=NC3=C(N2)C=C(C=C3)C(=O)N)OC4=CC=C(C=C4)Cl
In short: as §1

[5] = compound: C1=CC2=C(C=CC(=C2)/C=C\3/C(=O)NC(=NCC4=CC=CS4)S3)N=C1
In short: as §1

[6] = compound: C1=CC2=NC=CN=C2C=C1/C=C/3\C(=O)NC(=O)S3
In short: as §1

[7] = compound: C1=CC=C(C=C1)C2=NC(=C(N2)C3=CC=NC=C3)C4=CC(=C(C=C4)Cl)O
In short: as §1

[8] = compound: C1=CC=C2C(=C1)C3=NNC4=CC=CC(=C43)C2=O
In short: as §1

[9] = compound: C1CCN(C1)C(=O)NC2=CC=CC(=C2)NC3=NC=C(C(=N3)NCCC4=CN=CN4)Br
In short: as §1

[10] = compound: C1CN(CCC1(CC2=CC=C(C=C2)Cl)N)C3=NC=NC4=C3C=CN4
In short: as §1

[11] = compound: C1COCCN1CCN2C3=CC=CC=C3N=C2NC(=O)C4=CC(=CC=C4)[N+](=O)[O-] [IRAK-1-4 Inhibitor I]
In short: as §1

[12] = compound: C=CC(=O)N1CCC[C@@H](n2nc(-c3ccc(Oc4ccccc4)cc3)c3c(N)ncnc32)C1 [ibrutinib]
In short: as §1

[13] = compound: CC(=O)c1cnc2ccc(-c3cc(Cl)c(O)c(Cl)c3)nc2c1N[C@H]1CC[C@H](CN(C)C)CC1
In short: as §1

[14] = compound: CC(C)(C)Cn1c(N)nc2ccc(-c3[nH]c(C(C)(C)C)nc3-c3ccc(F)cc3)nc21 [ralimetinib]
In short: as §1

[15] = compound: CC(C)(O)CC(=O)NCCn1ccc2ncnc(Nc3ccc(Oc4cccc(C(F)(F)F)c4)c(Cl)c3)c21
In short: as §1

[16] = compound: CC(C)C1=C2N=C(C=C(N2N=C1)NCC3=CC=CC=C3)NCCCCCCN
In short: as §1

[17] = compound: CC(C)C[C@@H](C=O)NC(=O)[C@H](CC(C)C)NC(=O)[C@H](CC(C)C)NC(=O)OCc1ccccc1
In short: as §1

[18] = compound: CC(C)N(C[C@H]1O[C@@H](n2cnc3c(N)ncnc32)[C@H](O)[C@@H]1O)[C@H]1C[C@@H](CCc2nc3cc(C(C)(C)C)ccc3[nH]2)C1 [pinometostat]
In short: as §1

[19] = compound: CC1=C(C(CC(=O)N1)C2=CC=C(C=C2)C(F)(F)F)C(=O)NC3=C(C=C4C(=C3)C=NN4)F
In short: as §1

[20] = compound: CC1=C(C2=C(C=C1)C(=O)C3=CC=CC=C3N2CCCN)C
In short: as §1

Row | Target | log2 fold change [1] | log2 fold change [2] | log2 fold change [3] | log2 fold change [4] | log2 fold change [5] | log2 fold change [6] | log2 fold change [7] | log2 fold change [8] | log2 fold change [9] | log2 fold change [10] | log2 fold change [11] | log2 fold change [12] | log2 fold change [13] | log2 fold change [14] | log2 fold change [15] | log2 fold change [16] | log2 fold change [17] | log2 fold change [18] | log2 fold change [19] | log2 fold change [20]
1 | ISOC2 (UniProt Q96AB3) | inactive: -0.01 | inactive: 0.03 | inactive: 0.133 | inactive: 0.079 | inactive: 0.027 | inactive: 0.003 | inactive: 0.063 | inactive: 0.096 | inactive: -0.088 | inactive: 0.049 | inactive: -0.003 | inactive: 0.092 | inactive: -0.021 | inactive: -0.004 | inactive: -0.062 | inactive: -0.055 | inactive: -0.091 | inactive: 0.041 | inactive: 0.124 | inactive: 0.055
2 | ITPRIP (UniProt Q8IWB1) | inactive: 0.012 | inactive: -0.086 | inactive: 0.052 | inactive: 0.034 | inactive: -0.05 | inactive: 0.01 | inactive: -0.085 | inactive: -0.094 | inactive: -0.02 | inactive: 0.012 | inactive: -0.063 | inactive: 0.059 | inactive: -0.013 | inactive: 0.005 | inactive: 0.007 | inactive: -0.074 | inactive: 0.082 | inactive: -0.005 |  | inactive: 0.022
3 | ILF3 isoform 7 (UniProt Q12906) | inactive: -0.068 | inactive: -0.084 | inactive: -0.266 | inactive: -0.004 | inactive: -0.049 | inactive: 0.099 | inactive: -0.061 | inactive: -0.01 | inactive: 0.054 | inactive: -0.186 | inactive: -0.098 | inactive: 0.014 | inactive: 0.172 | inactive: 0.067 | inactive: 0.086 | inactive: 0.338 | inactive: 0.001 | inactive: 0.134 |  | inactive: 0.218
4 | ILKAP (UniProt Q9H0C8) | inactive: 0.096 | inactive: 0.26 | inactive: 0.071 | inactive: -0.02 | inactive: 0.126 | inactive: 0.011 | inactive: 0.022 | inactive: 0.088 | inactive: -0.092 | inactive: -0.076 | inactive: -0.07 | inactive: -0.016 | inactive: -0.055 | inactive: -0.024 | inactive: -0.133 | inactive: -0.078 | inactive: -0.053 | inactive: -0.004 |  | inactive: 0.032
5 | ITM2B (UniProt Q9Y287) | inactive: 0.099 | inactive: -0.012 | inactive: -0.122 | inactive: 0.041 | inactive: 0 | inactive: 0.042 | inactive: 0.068 | inactive: -0.12 | inactive: -0.066 | inactive: 0.027 | inactive: -0.008 | inactive: 0.071 | inactive: -0.043 | inactive: -0.005 | inactive: -0.042 | inactive: -0.119 | inactive: 0.197 | inactive: 0.03 |  | inactive: -0.198
6 | IGFBP2 (UniProt P18065) | inactive: -0.074 | inactive: -0.023 | inactive: -0.146 | inactive: 0.3 | inactive: 0.054 | inactive: 0.03 | inactive: 0.09 | inactive: -0.209 | inactive: 0.065 | inactive: 0.039 | inactive: 0.196 | inactive: 0.09 | inactive: 0.166 | inactive: -0.115 | inactive: -0.063 | inactive: -0.137 | inactive: 0.008 | inactive: -0.192 |  | inactive: -0.159
7 | IPO13 (UniProt O94829) | inactive: -0.045 | inactive: -0.018 | inactive: 0.05 | inactive: -0.037 | inactive: 0.025 | inactive: 0.021 | inactive: -0.059 | inactive: -0.033 | inactive: 0.013 | inactive: -0.062 | inactive: -0.005 | inactive: -0.1 | inactive: 0.066 | inactive: 0.103 | inactive: -0.226 | active: -0.281 | inactive: 0.002 | inactive: 0.015 |  | inactive: -0.04
8 | ILRUN (UniProt Q9H6K1) | inactive: -0.009 | inactive: 0.069 | inactive: -0.033 | inactive: 0.027 | inactive: 0.075 | inactive: 0.043 | inactive: -0.06 | inactive: -0.063 | inactive: 0.028 | inactive: 0.041 | inactive: 0.031 | inactive: 0.044 | inactive: -0.011 | inactive: -0.004 | inactive: -0.035 | inactive: -0.148 | inactive: 0.027 | inactive: -0.06 |  | inactive: -0.055
